# Structures can show the parent of a compound that is named as a salt. Hit rate of the full screen: of about 5,300 compounds, about 130 (2.5%) showed an effect of 50% or more. Some of the results follow.
# System: M. mycetomatis strain mm55
# Conditions: primary screen, metabolic activity vs growth control; 96 h, 2 µM; inhibitor
row,Compound,% viability [%]
1,"CC(=O)NC1=NN(C(C)=O)C(C)(c2ccccc2)S1 (stereo not drawn) [ONC0002658, k858]",49.67
2,"Cc1ccc(-c2csc(NC(=O)c3ccccc3)n2)c(C)c1 [ONC0000101, inh1]",105
3,"CC(=O)O[C@]1(C(C)=O)CC[C@H]2[C@@H]3C[C@H](C)C4=CC(=O)C=C[C@]4(C)[C@@]3(F)[C@@H](O)C[C@@]21C [ONC0004573, fluorometholone acetate]",70.28
4,"O=C[C@H](O)[C@@H](O)[C@H](O)CO [ONC0002758, xylose]",82.95
5,"CCCC(CCC)C(=O)NCC(N)=O [ONC0003729, valrocemide]",110.7
6,O=C(O)COc1ccc(OCCNC[C@H](O)COc2ccccc2)cc1 [ONC0002275],78.74
7,"NS(=O)(=O)c1cc(C(=O)O)cc(N2CCCC2)c1Oc1ccccc1 [ONC0002921, piretanide]",95.29
8,"CN(C)CCCN1c2ccccc2Sc2ccccc21 [ONC0000468, promazine hydrochloride]",105.3
9,"O=C(OCCO)c1ccccc1O [ONC0002561, 2hydroxyethyl salicylate]",94.22
10,"NC(Cc1ccc(Cl)cc1)C(=O)O (stereo not drawn) [ONC0004058, fenclonine]",115.9
11,"Cc1cc(C(C)(C)C)c(O)c(C)c1CC1=NCCN1 [ONC0000589, oxymetazoline hydrochloride]",69.04
12,"CSc1ccc2c(c1)C(N1CCN(C)CC1)Cc1ccccc1S2 (stereo not drawn) [ONC0002377, metitepine mesylate]",106.2
13,"CC(C)(C)C(=O)Oc1ccc(S(=O)(=O)Nc2ccccc2C(=O)NCC(=O)O)cc1 [ONC0001258, sivelestat sodium tetrahydrate]",72.66
14,"CC(C(=O)O)c1ccc2c(c1)Cc1cccnc1O2 (stereo not drawn) [ONC0004849, pranoprofen]",94.56
15,"C[C@H]1COc2c(C3(N)CC3)c(F)cc3c(=O)c(C(=O)O)cn1c23 [ONC0004103, pazufloxacin mesylate]",108
16,"COc1ccc([C@]2(O)CC[C@H](N3CC[C@@H](NC(=O)CNC(=O)c4cccc(C(F)(F)F)c4)C3)CC2)cn1 [ONC0003647, incb 3284]",73.08
17,"C[N+]1(C)[C@@H]2C[C@@H](OC(=O)C(O)(c3cccs3)c3cccs3)C[C@H]1[C@@H]1O[C@@H]12 [ONC0004964, tiotropium bromide hydrate]",92.43
18,"CN[C@H](C(=O)N[C@H](C(=O)N(C)[C@H](/C=C(\C)C(=O)O)C(C)C)C(C)(C)C)C(C)(C)c1ccccc1 [ONC0001108, taltobulin trifluoroacetate]",64.78
19,"CCCN1C[C@H](CSC)C[C@@H]2c3cccc4[nH]cc(c34)C[C@H]21 [ONC0004518, pergolide mesylate]",87.18
20,"Cc1cc(C(N)=O)ccc1-n1c(CCC(=O)O)ccc1-c1ccc(-n2ccnc2)cc1 [ONC0002521, n6022]",67.4

# Three of the compounds above, with tabs.
row	Compound	% viability [%]
18	CN[C@H](C(=O)N[C@H](C(=O)N(C)[C@H](/C=C(\C)C(=O)O)C(C)C)C(C)(C)C)C(C)(C)c1ccccc1 [ONC0001108, taltobulin trifluoroacetate]	64.78
19	CCCN1C[C@H](CSC)C[C@@H]2c3cccc4[nH]cc(c34)C[C@H]21 [ONC0004518, pergolide mesylate]	87.18
20	Cc1cc(C(N)=O)ccc1-n1c(CCC(=O)O)ccc1-c1ccc(-n2ccnc2)cc1 [ONC0002521, n6022]	67.4

# (continued)

row,Compound,% viability [%]
1,"N#Cc1ccc(N2NC3=C(CCc4cc(C(=O)O)ccc43)[C@@H]2C2CCCC2)cc1Cl [ONC0002131, pf03882845]",78.15
2,"CC(=O)Nc1ccccc1 [ONC0000688, acetanilide]",114.7
3,"O=C(/C=C/c1ccc2ccccc2n1)c1ccncc1 [ONC0002509, pfk015]",73.37
4,"COC(=O)[C@H](CCCNC(=N)N)NS(=O)(=O)c1ccc(C)cc1 [ONC0004976, tame]",63.05
5,"CC(C)N(C[C@H]1O[C@@H](n2cnc3c(N)ncnc32)[C@H](O)[C@@H]1O)[C@H]1C[C@@H](CCc2nc3cc(C(C)(C)C)ccc3[nH]2)C1 [ONC0004580, pinometostat epz5676]",93.61
6,"COC(=O)C1=C(C)NC(C)=C(C(=O)OCCN2CCN(C(c3ccccc3)c3ccccc3)CC2)C1c1cccc([N+](=O)[O-])c1 (stereo not drawn) [ONC0000461, manidipine hydrochloride]",64.38
7,"CCOc1nc2cccc(C(=O)OC(C)OC(=O)OC3CCCCC3)c2n1Cc1ccc(-c2ccccc2-c2nnn[nH]2)cc1 (stereo not drawn) [ONC0004302, candesartan cilextil]",98.1
8,"COC(c1ccccc1)(c1ccccc1)[C@H](Oc1nc(C)cc(C)n1)C(=O)O [ONC0005273, ambrisentan]",123
9,"N[C@H](C(=O)O)c1ccc(O)c(C(=O)O)c1 [ONC0002607, 3carboxy4hydroxyphenylglycines]",77.12
10,"CC1(C)[C@@H]2CC[C@@]1(C)C(=O)C2 [ONC0001100, camphor]",81.73
11,"Cc1ccccc1-c1cc(N2CCN(C)CC2)ncc1N(C)C(=O)C(C)(C)c1cc(C(F)(F)F)cc(C(F)(F)F)c1 [ONC0000756, netupitant]",100.4
12,"Cc1c(C)c2c(c(C)c1O)CCC(C)(COc1ccc(CC3SC(=O)NC3=O)cc1)O2 (stereo not drawn) [ONC0003470, troglitazone]",96.71
13,"N[C@H](Cc1ccc(I)cc1)C(=O)O [ONC0001891, 4iodolphenylalanine]",73.96
14,"CC1Sc2c(C(=O)O)c(=O)c3cc(F)c(N4CCNCC4)cc3n21 (stereo not drawn) [ONC0003341, ulifloxacin]",85.47
15,"NC(=S)NN=Cc1ccncc1 [ONC0003747, perchlozone]",128.7
16,"NC(=O)CN1C[C@H](O)CC1=O [ONC0001227, roxiracetam]",88.71
17,"Nc1nc(NC2CC2)cc(-c2cccc(Cl)c2Cl)n1 [ONC0001006, th588]",80.42
18,Cc1ncc(CO)c(/C=N/NC(=O)c2ccncc2)c1O [ONC0002735],78.77
19,"CC1/C=C/C=C/C=C/C=C/C=C/C=C/C=C/C(O[C@@H]2O[C@H](C)[C@H](O)[C@@H](O)[C@@H]2N)CC(O)C(C(=O)O)C(O)CC(=O)CC(O)CC(O)CC(O)CC(=O)CCCC(=O)CC(=O)OC1C(C)CC(C)C(O)CC(=O)c1ccc(N)cc1 (stereo partly drawn) [ONC0002443, candicidin]",69.9

# From article PMC12670160, “A drug-repurposing screen of FDA- and EMA-approved drugs identifies two NF-κB inhibitors active against eumycetoma” (Journal of Antimicrobial Chemotherapy, 2025)
